Tests used:
[1] = tested on: Hsp90 complexes in K562 cell extract; experiment: Nano-LC-MS/MS of PU-beads pull-downs; assay type: binding; settings: protein identified in PU-beads pull-down of K562 extract, QSTAR-Elite QTof MS
Description: Protein cargo isolated from cell lysate with PU-beads or control-beads was subjected to proteomic analysis by nano liquid chromatography coupled to tandem mass spectrometry (nano LC-MS/MS). Initial protein identification was performed using the Mascot search engine, and was further evaluated using Scaffold Proteome Software (Tables 5a-d).
Lysates prepared as mentioned above were first pre-cleaned by incubation with control beads overnight at 4° C. […] Beads were washed with lysis buffer, proteins eluted by boiling in 2% SDS, separated on a denaturing gel and Coomassie stained according to manufacturer's procedure (Biorad). […] Analyses of the batch purified pools were done using a QSTAR-Elite hybrid quadrupole time-of-flight mass spectrometer (QTof MS) (AB/MDS Sciex), equipped with a nano spray ion source. Peptide mixtures (in 20 μL) are loaded onto a trapping guard column (0.3×5-mm PepMap C18 100 cartridge from LC Packings) using an Eksigent nano MDLC system (Eksigent Technologies, Inc) at a flow rate of 20 μL/min. […] Electrospray ionization (ESI) needle voltage was set at about 1800 V. The mass analyzer is operated in automatic, data-dependent MS/MS acquisition mode, with the threshold set to 10 counts per second of doubly or triply charged precursor ions selected for fragmentation scans. Survey scans of 0.25 sec are recorded from 400 to 1800 amu; up to 3 MS/MS scans are then collected sequentially for the selected precursor ions, recording from 100 to 1800 amu. The collision energy is automatically adjusted in accordance with the m/z value of the precursor ions selected for MS/MS. Selected precursor ions are excluded from repeated selection for 60 sec after the end of the corresponding fragmentation duty cycle. […] One missed tryptic cleavage site was allowed, precursor ion mass tolerance=0.4 Da fragment ion mass tolerance=0.4 Da, protein modifications were allowed for Met-oxide, Cys-acrylamide and N-terminal acetylation. MudPit scoring was typically applied with ‘require bold red’ activated, and using significance threshold score p<0.05. Unique peptide counts (or ‘spectral counts’) and percent sequence coverages for all identified proteins were exported to Scaffold Proteome Software (version 2_06_01, www.proteomesoftware.com) for further bioinformatic analysis (Table 5a). Using output from Mascot, Scaffold validates, organizes, and interprets mass spectrometry data, allowing more easily to manage large amounts of data, to compare samples, and to search for protein modifications.

[2] = tested on: Hsp90 complexes in Mia-PaCa-2 cell extract; experiment: Nano-LC-MS/MS of PU-beads pull-downs; assay type: binding, human; settings: protein identified in PU-beads pull-down of Mia-Paca 2 extract; QSTAR-Elite QTof MS
Description: Lysates prepared as mentioned above were first pre-cleaned by incubation with control beads overnight at 4° C. […] Beads were washed with lysis buffer, proteins eluted by boiling in 2% SDS, separated on a denaturing gel and Coomassie stained according to manufacturer's procedure (Biorad). […] Analyses of the batch purified pools were done using a QSTAR-Elite hybrid quadrupole time-of-flight mass spectrometer (QTof MS) (AB/MDS Sciex), equipped with a nano spray ion source. Peptide mixtures (in 20 μL) are loaded onto a trapping guard column (0.3×5-mm PepMap C18 100 cartridge from LC Packings) using an Eksigent nano MDLC system (Eksigent Technologies, Inc) at a flow rate of 20 μL/min. […] Electrospray ionization (ESI) needle voltage was set at about 1800 V. The mass analyzer is operated in automatic, data-dependent MS/MS acquisition mode, with the threshold set to 10 counts per second of doubly or triply charged precursor ions selected for fragmentation scans. Survey scans of 0.25 sec are recorded from 400 to 1800 amu; up to 3 MS/MS scans are then collected sequentially for the selected precursor ions, recording from 100 to 1800 amu. The collision energy is automatically adjusted in accordance with the m/z value of the precursor ions selected for MS/MS. Selected precursor ions are excluded from repeated selection for 60 sec after the end of the corresponding fragmentation duty cycle. […]

B1: TAB1 (protein)
chain: MAAQRRSLLQSEQQPSWTDDLPLCHLSGVGSASNRSYSADGKGTESHPPEDSWLKFRSENNCFLYGVFNGYDGNRVTNFVAQRLSAELLLGQLNAEHAEADVRRVLLQAFDVVERSFLESIDDALAEKASLQSQLPEGVPQHQLPPQYQKILERLKTLEREISGGAMAVVAVLLNNKLYVANVGTNRALLCKSTVDGLQVTQLNVDHTTENEDELFRLSQLGLDAGKIKQVGIICGQESTRRIGDYKVKYGYTDIDLLSAAKSKPIIAEPEIHGAQPLDGVTGFLVLMSEGLYKALEAAHGPGQANQEIAAMIDTEFAKQTSLDAVAQAVVDRVKRIHSDTFASGGERARFCPRHEDMTLLVRNFGYPLGEMSQPTPSPAPAAGGRVYPVSVPYSSAQSTSKTSVTLSLVMPSQGQMVNGAHSASTLDEATPTLTNQSPTLTLQSTNTHTQSSSSSSDGGLFRSRPAHSLPPGEDGRVEPYVDFAEFYRLWSVDHGEQSVVTAP
Number of Assigned Spectra, K562 Prep 1 [1]: 1
Number of Assigned Spectra, K562 Prep 2 [1]: 3
Number of Assigned Spectra, Mia-Paca 2 [2]: 2

B2: PTK2; FAK1 (protein, UniProt Q05397 2-1052, looked up)
Focal adhesion kinase 1: AAAYLDPNLNHTPNSSTKTHLGTGMERSPGAMERVLKVFHYFESNSEPTTWASIIRHGDATDVRGIIQKIVDSHKVKHVACYGFRLSHLRSEEVHWLHVDMGVSSVREKYELAHPPEEWKYELRIRYLPKGFLNQFTEDKPTLNFFYQQVKSDYMLEIADQVDQEIALKLGCLEIRRSYWEMRGNALEKKSNYEVLEKDVGLKRFFPKSLLDSVKAKTLRKLIQQTFRQFANLNREESILKFFEILSPVYRFDKECFKCALGSSWIISVELAIGPEEGISYLTDKGCNPTHLADFTQVQTIQYSNSEDKDRKGMLQLKIAGAPEPLTVTAPSLTIAENMADLIDGYCRLVNGTSQSFIIRPQKEGERALPSIPKLANSEKQGMRTHAVSVSETDDYAEIIDEEDTYTMPSTRDYEIQRERIELGRCIGEGQFGDVHQGIYMSPENPALAVAIKTCKNCTSDSVREKFLQEALTMRQFDHPHIVKLIGVITENPVWIIMELCTLGELRSFLQVRKYSLDLASLILYAYQLSTALAYLESKRFVHRDIAARNVLVSSNDCVKLGDFGLSRYMEDSTYYKASKGKLPIKWMAPESINFRRFTSASDVWMFGVCMWEILMHGVKPFQGVKNNDVIGRIENGERLPMPPNCPPTLYSLMTKCWAYDPSRRPRFTELKAQLSTILEEEKAQQEERMRMESRRQATVSWDSGGSDEAPPKPSRPGYPSPRSSEGFYPSPQHMVQTNHYQVSGYPGSHGITAMAGSIYPGQASLLDQTDSWNHRPQEIAMWQPNVEDSTVLDLRGIGQVLPTHLMEERLIRQQQEMEEDQRWLEKEERFLKPDVRLSRGSIDREDGSLQGPIGNQHIYQPVGKPDPAAPPKKPPRPGAPGHLGSLASLSSPADSYNEGVKLQPQEISPPPTANLDRSNDKVYENVTGLVKAVIEMSSKIQPAPPEEYVPMVKEVGLALRTLLATVDETIPLLPASTHREIEMAQKLLNSDLGELINKMKLAQQYVMTSLQQEYKKQMLTAAHALAVDAKNLLDVIDQARLKMLGQTRPH
Number of Assigned Spectra, K562 Prep 1 [1]: 4
Number of Assigned Spectra, K562 Prep 2 [1]: 5
Number of Assigned Spectra, Mia-Paca 2 [2]: 4
